Assay [1] has as its target T1, potassium-chloride cotransporter KCC2 (rat (endogenous in organotypic hippocampal slices)) (UniProt Q63633).
T1 sequence: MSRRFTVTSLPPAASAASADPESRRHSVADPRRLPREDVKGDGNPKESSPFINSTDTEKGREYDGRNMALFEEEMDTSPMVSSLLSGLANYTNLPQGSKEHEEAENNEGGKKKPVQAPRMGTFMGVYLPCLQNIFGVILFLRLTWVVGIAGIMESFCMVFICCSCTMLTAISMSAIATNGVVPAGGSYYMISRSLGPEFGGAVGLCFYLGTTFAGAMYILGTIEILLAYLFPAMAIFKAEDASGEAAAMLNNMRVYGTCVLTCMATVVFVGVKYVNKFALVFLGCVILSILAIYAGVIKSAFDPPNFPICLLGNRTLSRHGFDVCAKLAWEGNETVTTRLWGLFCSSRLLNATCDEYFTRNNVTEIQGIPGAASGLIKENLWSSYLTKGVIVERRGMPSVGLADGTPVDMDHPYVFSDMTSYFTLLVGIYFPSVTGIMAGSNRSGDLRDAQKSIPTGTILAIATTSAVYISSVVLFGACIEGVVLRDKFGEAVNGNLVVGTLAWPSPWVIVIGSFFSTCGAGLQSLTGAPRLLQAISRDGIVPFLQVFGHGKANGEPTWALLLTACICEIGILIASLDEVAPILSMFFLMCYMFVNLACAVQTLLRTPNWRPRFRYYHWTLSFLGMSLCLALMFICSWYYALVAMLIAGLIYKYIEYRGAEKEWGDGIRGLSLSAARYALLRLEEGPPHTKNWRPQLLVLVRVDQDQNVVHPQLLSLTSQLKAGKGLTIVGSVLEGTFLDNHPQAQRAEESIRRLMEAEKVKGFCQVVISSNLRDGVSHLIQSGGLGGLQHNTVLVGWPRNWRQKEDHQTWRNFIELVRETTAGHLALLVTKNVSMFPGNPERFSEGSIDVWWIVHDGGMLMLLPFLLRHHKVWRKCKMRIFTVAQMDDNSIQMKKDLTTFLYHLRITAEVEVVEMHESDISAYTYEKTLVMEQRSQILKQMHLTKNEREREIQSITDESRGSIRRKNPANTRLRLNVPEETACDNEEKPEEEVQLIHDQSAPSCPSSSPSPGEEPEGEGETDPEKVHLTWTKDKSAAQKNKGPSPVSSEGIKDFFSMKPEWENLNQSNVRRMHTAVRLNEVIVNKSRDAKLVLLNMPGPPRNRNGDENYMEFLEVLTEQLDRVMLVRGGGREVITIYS
The experiment in a line: co-IP; lysates of rat organotypic hippocampal slices in CHAPS buffer (50 mM Tris pH 7.5, 150 mM NaCl, 5 mM EDTA, 0.5% CHAPS); precipitation with anti-GABABR1 or anti-KCC2, Protein A/G agarose, immunoblot; IgG controls; also slices treated with SKF97541 (amount of KCC2 in GABABR1 complexes not changed). A general note: In western blotting, separated proteins are transferred to a membrane and probed.

By UniProt entry, the sequences of proteins in these tests, tags left out. Residues count along the entry.
UniProt Q9Z0U4, residues 20-960: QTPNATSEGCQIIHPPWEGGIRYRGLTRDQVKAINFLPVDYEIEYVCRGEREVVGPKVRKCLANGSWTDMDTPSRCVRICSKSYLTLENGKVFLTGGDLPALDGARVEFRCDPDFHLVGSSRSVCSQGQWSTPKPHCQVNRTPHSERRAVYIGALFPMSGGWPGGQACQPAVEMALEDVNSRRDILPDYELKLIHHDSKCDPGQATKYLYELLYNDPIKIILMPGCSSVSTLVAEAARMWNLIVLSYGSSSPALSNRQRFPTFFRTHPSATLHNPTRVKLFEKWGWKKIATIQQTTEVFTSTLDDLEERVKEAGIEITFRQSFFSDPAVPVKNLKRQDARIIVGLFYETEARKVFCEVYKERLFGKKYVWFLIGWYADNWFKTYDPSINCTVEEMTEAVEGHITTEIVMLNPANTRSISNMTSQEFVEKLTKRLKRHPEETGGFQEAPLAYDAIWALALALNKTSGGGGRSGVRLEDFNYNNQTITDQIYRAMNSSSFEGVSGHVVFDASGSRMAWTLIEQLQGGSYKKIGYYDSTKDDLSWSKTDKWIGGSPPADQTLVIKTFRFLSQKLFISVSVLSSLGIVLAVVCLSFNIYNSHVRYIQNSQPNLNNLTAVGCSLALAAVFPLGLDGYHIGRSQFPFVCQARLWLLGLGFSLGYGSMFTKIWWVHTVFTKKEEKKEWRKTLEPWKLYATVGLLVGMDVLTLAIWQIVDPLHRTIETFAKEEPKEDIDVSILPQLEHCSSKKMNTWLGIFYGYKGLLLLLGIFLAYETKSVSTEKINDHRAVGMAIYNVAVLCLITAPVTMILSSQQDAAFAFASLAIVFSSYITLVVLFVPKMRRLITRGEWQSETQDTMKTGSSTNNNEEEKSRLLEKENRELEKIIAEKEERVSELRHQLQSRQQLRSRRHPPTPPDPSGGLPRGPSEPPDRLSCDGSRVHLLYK

For assay [2], the target named is GABAB receptor subunit 1, splice isoform GABABR1a (rat (endogenous in organotypic hippocampal slices)) (UniProt Q9Z0U4). The description is as above.

These are yes or no findings as the source states them, for the method shown. Binding seen in cells or lysates may run through a third protein. Some results given as binding are weak or reduced against the parent protein; the word gives no strength.

Consider “GABAB receptor subunit 1, splice isoform GABABR1a (from UniProt Q9Z0U4 20-960)”, for which the binding entry in assay [1] is on record as “binds”.

B1: potassium-chloride cotransporter KCC2 (protein, UniProt Q63633 1-1139)
chain: T1 sequence
Consider B1, for which the binding entry in assay [2] is “binds”.

The values are drawn from article PMC5452337.
